{"source": "PubChem BioAssay AID1159578 (Peter MacCallum Cancer Centre, 2015)", "purpose": "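Knock-downs that alter how fast lymphatic endothelial cells migrate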 (primary screen)", "cell system": "human lymphatic endothelial cells", "reagent": "siRNA pool against human genes, 40 nM", "time to read-out": "48 h after transfection", "read-out": "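Cells stained with dye and imaged after a scratch; covered wound area and nuclei counted, duplicates averaged, migration set against mock wells and turned into a robust z-score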", "direction": "migration robust z-score: higher = faster migration into the scratch; nuclei per well: higher = more cells in the well", "active means": "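Migration changed when robust z exceeds 2 or falls below -2 and mean nuclei number is at least 3300; otherwise not called changed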", "calls": "active = migration changed; inactive = no migration change, or too few cells", "note": "The deposit covers about 18,000 reagents; this is a part drawn at random. Of all reagents, about 1,030 (5.7%) are marked active. 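Inactive calls also include pools with fewer than 3300 nuclei, whose migration was not assessed.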 The raw values are shown without normalisation. Entries without a mark were called inactive. Not all columns of the deposit are shown. Reagent sequences are not shown."}
{"Gene": "DIRC1 (disrupted in renal carcinoma 1)", "migration robust z-score": 0.59, "migration class with cell-count check": "migration z between -2 and 2; enough cells", "nuclei per well, duplicate mean": 5212}
{"Gene": "SLITRK3 (SLIT and NTRK like family member 3)", "migration robust z-score": 0.76, "migration class with cell-count check": "migration z between -2 and 2; enough cells", "nuclei per well, duplicate mean": 6384}
{"Gene": "KRT71 (keratin 71)", "migration robust z-score": 0.24, "migration class with cell-count check": "migration z between -2 and 2; enough cells", "nuclei per well, duplicate mean": 3575}
{"Gene": "CALM1 (calmodulin 1)", "migration robust z-score": 0, "migration class with cell-count check": "migration z between -2 and 2; enough cells", "nuclei per well, duplicate mean": 5893}
{"Gene": "MALSU1 (mitochondrial assembly of ribosomal large subunit 1)", "migration robust z-score": -0.48, "migration class with cell-count check": "migration z between -2 and 2; enough cells", "nuclei per well, duplicate mean": 7404}
{"Gene": "ADGRE1 (adhesion G protein-coupled receptor E1)", "migration robust z-score": 0.03, "migration class with cell-count check": "migration z between -2 and 2; enough cells", "nuclei per well, duplicate mean": 4365}
{"Gene": "ATL1 (atlastin GTPase 1)", "migration robust z-score": 0.57, "migration class with cell-count check": "migration z between -2 and 2; enough cells", "nuclei per well, duplicate mean": 3983}
{"Gene": "BBS4 (Bardet-Biedl syndrome 4)", "migration robust z-score": 0.07, "migration class with cell-count check": "migration z between -2 and 2; enough cells", "nuclei per well, duplicate mean": 5098}
{"Gene": "MRPS10 (mitochondrial ribosomal protein S10)", "migration robust z-score": "-2.66 (active)", "migration class with cell-count check": "migration z below -2; enough cells", "nuclei per well, duplicate mean": 3595}
{"Gene": "SLC36A2", "migration robust z-score": 0.68, "migration class with cell-count check": "migration z between -2 and 2; enough cells", "nuclei per well, duplicate mean": 5952}

The list goes on; the last 2 above are carried over.
{"Gene": "MRPS10 (mitochondrial ribosomal protein S10)", "migration robust z-score": "-2.66 (active)", "migration class with cell-count check": "migration z below -2; enough cells", "nuclei per well, duplicate mean": 3595}
{"Gene": "SLC36A2", "migration robust z-score": 0.68, "migration class with cell-count check": "migration z between -2 and 2; enough cells", "nuclei per well, duplicate mean": 5952}
{"Gene": "PAMR1", "migration robust z-score": 0.46, "migration class with cell-count check": "migration z between -2 and 2; enough cells", "nuclei per well, duplicate mean": 5006}
{"Gene": "MYH10 (myosin heavy chain 10)", "migration robust z-score": 0.3, "migration class with cell-count check": "migration z between -2 and 2; enough cells", "nuclei per well, duplicate mean": 6003}
{"Gene": "RAB38 (RAB38, member RAS oncogene family)", "migration robust z-score": -5.24, "migration class with cell-count check": "under 3300 nuclei; migration not judged", "nuclei per well, duplicate mean": 2189}
{"Gene": "GLB1L3 (galactosidase beta 1 like 3)", "migration robust z-score": -1.81, "migration class with cell-count check": "migration z between -2 and 2; enough cells", "nuclei per well, duplicate mean": 5892}
{"Gene": "NCR2 (natural cytotoxicity triggering receptor 2)", "migration robust z-score": 1.25, "migration class with cell-count check": "migration z between -2 and 2; enough cells", "nuclei per well, duplicate mean": 6228}
{"Gene": "UBE2R2 (ubiquitin conjugating enzyme E2 R2)", "migration robust z-score": 1.19, "migration class with cell-count check": "migration z between -2 and 2; enough cells", "nuclei per well, duplicate mean": 6038}
{"Gene": "DYRK4 (dual specificity tyrosine phosphorylation regulated kinase 4)", "migration robust z-score": 1.15, "migration class with cell-count check": "migration z between -2 and 2; enough cells", "nuclei per well, duplicate mean": 6406}
{"Gene": "TPPP2 (tubulin polymerization promoting protein family member 2)", "migration robust z-score": 0.4, "migration class with cell-count check": "migration z between -2 and 2; enough cells", "nuclei per well, duplicate mean": 4496}
{"Gene": "PGGHG (protein-glucosylgalactosylhydroxylysine glucosidase)", "migration robust z-score": -0.91, "migration class with cell-count check": "migration z between -2 and 2; enough cells", "nuclei per well, duplicate mean": 6145}
{"Gene": "HS3ST3A1 (heparan sulfate-glucosamine 3-sulfotransferase 3A1)", "migration robust z-score": -0.96, "migration class with cell-count check": "migration z between -2 and 2; enough cells", "nuclei per well, duplicate mean": 5868}
{"Gene": "TEAD1 (TEA domain transcription factor 1)", "migration robust z-score": 1.42, "migration class with cell-count check": "migration z between -2 and 2; enough cells", "nuclei per well, duplicate mean": 4605}
